{"sequences": {"note": "The chains behind the UniProt entries cited, without tags or fusion partners. Residues count along the entry.", "UniProt Q9NZQ7, residues 19-290": "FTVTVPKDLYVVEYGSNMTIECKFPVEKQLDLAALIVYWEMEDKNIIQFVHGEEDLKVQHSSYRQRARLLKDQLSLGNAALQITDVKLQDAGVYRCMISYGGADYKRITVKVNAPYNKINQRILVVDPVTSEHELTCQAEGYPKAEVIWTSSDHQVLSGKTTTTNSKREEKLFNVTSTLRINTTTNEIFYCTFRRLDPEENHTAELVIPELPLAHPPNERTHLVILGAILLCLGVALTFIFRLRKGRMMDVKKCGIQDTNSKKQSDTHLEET", "UniProt P19474": "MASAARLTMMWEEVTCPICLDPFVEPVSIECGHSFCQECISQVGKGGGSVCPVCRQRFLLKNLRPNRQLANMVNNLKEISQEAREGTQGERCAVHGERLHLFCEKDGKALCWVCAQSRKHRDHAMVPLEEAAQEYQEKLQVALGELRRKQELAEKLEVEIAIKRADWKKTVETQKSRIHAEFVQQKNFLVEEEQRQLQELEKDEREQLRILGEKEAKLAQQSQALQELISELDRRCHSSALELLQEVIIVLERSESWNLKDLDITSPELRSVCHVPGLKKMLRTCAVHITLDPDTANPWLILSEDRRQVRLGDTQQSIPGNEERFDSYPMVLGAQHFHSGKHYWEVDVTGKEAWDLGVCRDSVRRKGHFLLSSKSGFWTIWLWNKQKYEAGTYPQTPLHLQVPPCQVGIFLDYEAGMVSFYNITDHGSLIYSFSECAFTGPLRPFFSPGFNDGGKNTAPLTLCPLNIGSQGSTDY"}, "source": "paper PMC12102395", "molecules": {"B1": {"name": "Flag-USP8 (enzyme, UniProt P40818 1-1118)", "chain": "MPAVASVPKELYLSSSLKDLNKKTEVKPEKISTKSYVHSALKIFKTAEECRLDRDEERAYVLYMKYVTVYNLIKKRPDFKQQQDYFHSILGPGNIKKAVEEAERLSESLKLRYEEAEVRKKLEEKDRQEEAQRLQQKRQETGREDGGTLAKGSLENVLDSKDKTQKSNGEKNEKCETKEKGAITAKELYTMMTDKNISLIIMDARRMQDYQDSCILHSLSVPEEAISPGVTASWIEAHLPDDSKDTWKKRGNVEYVVLLDWFSSAKDLQIGTTLRSLKDALFKWESKTVLRNEPLVLEGGYENWLLCYPQYTTNAKVTPPPRRQNEEVSISLDFTYPSLEESIPSKPAAQTPPASIEVDENIELISGQNERMGPLNISTPVEPVAASKSDVSPIIQPVPSIKNVPQIDRTKKPAVKLPEEHRIKSESTNHEQQSPQSGKVIPDRSTKPVVFSPTLMLTDEEKARIHAETALLMEKNKQEKELRERQQEEQKEKLRKEEQEQKAKKKQEAEENEITEKQQKAKEEMEKKESEQAKKEDKETSAKRGKEITGVKRQSKSEHETSDAKKSVEDRGKRCPTPEIQKKSTGDVPHTSVTGDSGSGKPFKIKGQPESGILRTGTFREDTDDTERNKAQREPLTRARSEEMGRIVPGLPSGWAKFLDPITGTFRYYHSPTNTVHMYPPEMAPSSAPPSTPPTHKAKPQIPAERDREPSKLKRSYSSPDITQAIQEEEKRKPTVTPTVNRENKPTCYPKAEISRLSASQIRNLNPVFGGSGPALTGLRNLGNTCYMNSILQCLCNAPHLADYFNRNCYQDDINRSNLLGHKGEVAEEFGIIMKALWTGQYRYISPKDFKITIGKINDQFAGYSQQDSQELLLFLMDGLHEDLNKADNRKRYKEENNDHLDDFKAAEHAWQKHKQLNESIIVALFQGQFKSTVQCLTCHKKSRTFEAFMYLSLPLASTSKCTLQDCLRLFSKEEKLTDNNRFYCSHCRARRDSLKKIEIWKLPPVLLVHLKRFSYDGRWKQKLQTSVDFPLENLDLSQYVIGPKNNLKKYNLFSVSNHYGGLDGGHYTAYCKNAARQRWFKFDDHEVSDISVSSVKSSAAYILFYTSLGPRVTDVAT"}, "B2": {"name": "USP8 (endogenous) (enzyme, UniProt P40818 1-1118)", "chain": "B1 chain"}}, "key": {"[1]": {"target": "T1, NBR1 (endogenous) (human (endogenous in DU145 and PC-3)) (UniProt Q14596)", "T1 sequence": "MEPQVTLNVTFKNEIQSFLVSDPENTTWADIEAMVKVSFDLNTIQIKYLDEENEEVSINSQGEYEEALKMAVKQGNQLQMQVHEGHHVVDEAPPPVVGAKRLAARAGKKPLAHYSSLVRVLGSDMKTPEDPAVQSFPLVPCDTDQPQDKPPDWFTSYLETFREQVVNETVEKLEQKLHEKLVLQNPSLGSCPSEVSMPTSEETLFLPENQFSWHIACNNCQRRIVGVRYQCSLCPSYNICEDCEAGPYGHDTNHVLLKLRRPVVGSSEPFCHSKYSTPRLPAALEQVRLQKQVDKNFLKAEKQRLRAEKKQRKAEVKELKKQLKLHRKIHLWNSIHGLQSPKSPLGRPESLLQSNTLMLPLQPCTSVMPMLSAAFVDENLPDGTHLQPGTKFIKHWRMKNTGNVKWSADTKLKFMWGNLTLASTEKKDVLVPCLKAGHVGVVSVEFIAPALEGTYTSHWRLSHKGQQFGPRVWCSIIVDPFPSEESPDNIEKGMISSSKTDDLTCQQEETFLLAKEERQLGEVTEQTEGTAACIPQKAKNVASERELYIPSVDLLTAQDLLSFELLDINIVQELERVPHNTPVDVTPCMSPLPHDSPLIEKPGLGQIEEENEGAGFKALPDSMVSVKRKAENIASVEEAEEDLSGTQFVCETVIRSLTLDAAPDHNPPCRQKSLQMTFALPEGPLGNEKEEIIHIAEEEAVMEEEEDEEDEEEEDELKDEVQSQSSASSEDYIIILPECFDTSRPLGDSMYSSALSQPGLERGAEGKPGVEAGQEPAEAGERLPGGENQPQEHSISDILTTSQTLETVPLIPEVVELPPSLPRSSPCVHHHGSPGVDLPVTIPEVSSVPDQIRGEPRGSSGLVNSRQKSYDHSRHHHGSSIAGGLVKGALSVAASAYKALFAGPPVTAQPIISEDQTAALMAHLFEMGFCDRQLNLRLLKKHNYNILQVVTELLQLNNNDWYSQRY", "experiment": "co-IP; endogenous proteins in lysates of DU145 and/or PC-3 cells; IP lysis buffer with protease inhibitors, IgG or specific primary antibody plus protein A/G magnetic beads overnight at 4 °C, three washes, western blot"}, "His-PD-L1": {"target": "His-PD-L1 (UniProt Q9NZQ7)", "experiment": "co-IP; tagged proteins co-transfected into HEK-293T cells; IP lysis buffer with protease inhibitors, IgG or specific primary antibody plus protein A/G magnetic beads overnight at 4 °C, three washes, western blot"}, "Myc-NBR1": {"target": "T2, Myc-NBR1 (UniProt Q14596)", "T2 sequence": "T1 sequence", "experiment": "co-IP; tagged proteins co-transfected into HEK-293T cells; IP lysis buffer with protease inhibitors, IgG or specific primary antibody plus protein A/G magnetic beads overnight at 4 °C, three washes, western blot"}, "[2]": {"target": "PD-L1 (endogenous) (human (endogenous in DU145 and PC-3)) (UniProt Q9NZQ7)", "experiment": "co-IP; endogenous proteins in lysates of DU145 and/or PC-3 cells; IP lysis buffer with protease inhibitors, IgG or specific primary antibody plus protein A/G magnetic beads overnight at 4 °C, three washes, western blot"}, "[3]": {"target": "T1, NBR1 (endogenous) (human (endogenous in DU145 and PC-3))", "experiment": "co-IP; endogenous proteins in lysates of DU145 and/or PC-3 cells; IP lysis buffer with protease inhibitors, IgG or specific primary antibody plus protein A/G magnetic beads overnight at 4 °C, three washes, western blot", "remark": "listed apart in the source"}}, "note": "Read-outs that look alike come from different tables or passages of the source. Results are given in words; binding and its absence hold for the method and conditions named. Binding seen in cells or lysates may run through a third protein. Some results given as binding are weak or reduced against the parent protein; the word gives no strength. For some assays here: Where a sequence is shown, tags or fusion partners need not be part of it.", "data": [{"molecule": "TRIM21 (from UniProt P19474 1-475) (enzyme)", "values": [{"measurement": "binding", "setting": "[1]", "value": "binds"}]}, {"molecule": "B1", "values": [{"measurement": "binding", "setting": "His-PD-L1", "value": "binds"}, {"measurement": "binding", "setting": "Myc-NBR1", "value": "binds"}]}, {"molecule": "B2", "values": [{"measurement": "binding", "setting": "[2]", "value": "binds"}, {"measurement": "binding", "setting": "[3]", "value": "binds"}]}]}
